The source of these data is publication doi:10.1101/2025.05.13.653872.

Chains of the proteins cited; added tags and fusions are not shown.
UniProt P48372: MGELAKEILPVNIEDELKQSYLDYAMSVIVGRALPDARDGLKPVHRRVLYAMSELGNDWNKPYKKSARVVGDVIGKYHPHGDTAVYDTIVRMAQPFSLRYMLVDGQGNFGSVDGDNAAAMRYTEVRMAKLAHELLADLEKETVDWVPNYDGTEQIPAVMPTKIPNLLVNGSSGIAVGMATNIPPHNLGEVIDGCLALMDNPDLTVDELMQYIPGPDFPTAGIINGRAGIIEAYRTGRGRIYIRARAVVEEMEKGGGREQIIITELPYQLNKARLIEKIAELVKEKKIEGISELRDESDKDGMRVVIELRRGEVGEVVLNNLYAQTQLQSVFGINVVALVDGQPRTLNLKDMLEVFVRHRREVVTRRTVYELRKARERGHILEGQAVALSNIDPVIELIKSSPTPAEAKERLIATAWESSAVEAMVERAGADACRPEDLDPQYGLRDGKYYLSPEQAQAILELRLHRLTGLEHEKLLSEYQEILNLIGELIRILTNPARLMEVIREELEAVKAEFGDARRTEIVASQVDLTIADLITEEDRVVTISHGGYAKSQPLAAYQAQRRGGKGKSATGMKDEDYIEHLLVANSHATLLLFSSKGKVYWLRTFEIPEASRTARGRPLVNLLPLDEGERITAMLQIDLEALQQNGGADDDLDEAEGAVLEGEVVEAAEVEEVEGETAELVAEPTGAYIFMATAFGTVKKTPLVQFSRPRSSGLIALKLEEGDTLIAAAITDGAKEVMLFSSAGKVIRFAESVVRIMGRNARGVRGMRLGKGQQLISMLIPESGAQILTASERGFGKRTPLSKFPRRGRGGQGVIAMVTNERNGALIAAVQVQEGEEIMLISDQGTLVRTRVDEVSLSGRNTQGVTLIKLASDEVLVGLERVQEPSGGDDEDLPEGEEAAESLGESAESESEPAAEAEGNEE

The target of experiment [1] is 6xHis-PcrP overexpressed in P. aeruginosa ΔpcrP (P. aeruginosa PAO1) (UniProt Q9I040). As to the kind of experiment: affinity purification with mass spectrometry; 6xHis-PcrP overexpressed in ΔpcrP grown in BMM8 at 0 or 5 mM Ca2+; lysate (1 mg/ml) on HisPur Ni-NTA resin, 2 h at 4°C, washed with 10 mM Tris-HCl pH 7.5; LC-MS/MS; ΔpcrP as negative control.
The target of experiment [2] is 3xFlag-PcrP overexpressed in P. aeruginosa ΔpcrP (P. aeruginosa PAO1) (UniProt Q9I040). As to the kind of experiment: affinity purification with mass spectrometry; 3xFlag-PcrP overexpressed in ΔpcrP grown in BMM8 (high Pi, 580 μM) or BMMH8 (low Pi, 50 μM) at 0 or 5 mM Ca2+; lysate (1 mg/ml) on ANTI-FLAG M2 magnetic beads, 2 h at 4°C, washed with 10 mM Tris-HCl pH 7.5; LC-MS/MS; ΔpcrP as negative control.

Results are given in words; binding and its absence hold for the method and conditions named. Binding seen in cells or lysates may run through a third protein. Here binding means that the protein was enriched with, or labelled near, the bait; the list need not be complete.

Consider “Acp3 (acyl carrier protein 3, PA3334) (from UniProt Q9HYR1)”, for which the binding entry in experiment [1] and in experiment [2] was “binds” throughout.
Regarding HsiB2 (PA1657) (from UniProt Q9I368), the binding result in experiment [1] and in experiment [2] was “binds” throughout.
As to “PA2978 protein phosphatase (from UniProt Q9HZM6)”, the binding entry in experiment [1] and in experiment [2] was “binds” throughout.
Consider “PA3168 DNA gyrase subunit A (from UniProt P48372 1-923)”, for which the binding result in experiment [2] was “binds”.
Same read-out and setting: the entry for “PA4241 30S ribosomal protein S13 (from UniProt Q9HWF7 1-118)” is “binds”.
In the case of “PA4941 protease subunit HflC (from UniProt Q9HUM3)”, the binding entry in experiment [1] and in experiment [2] was “binds” throughout.
